Experiment [1] has as its target hSOAT1 dimer construct (66-550) L151W (human) (UniProt P35610). The experiment is described as follows: SEC; FSEC of hSOAT1 dimer construct with dimer-interface mutations; dimer and monomer fractions.
Experiment [2] concerns the target hSOAT1 dimer construct (66-550) A147F (human) (UniProt P35610). Described as above.
The target in experiment [3] is hSOAT1 dimer construct (66-550) T140R (human) (UniProt P35610). The experiment is described as above.
Experiment [4] has as its target hSOAT1 dimer construct (66-550) V159W (human) (UniProt P35610). Described as above.
Experiment [5] addresses N-terminal GFP-tagged N-terminal truncated human SOAT1 (66-550) (human) (UniProt P35610). In words: SEC; FSEC thermostability assay: GFP-tagged hSOAT1 dimer construct from HEK293F solubilized in 1% GDN, kept at 4 °C or heated at 45 °C for 10 min, with DMSO or 100 µM CI-976; Superose 6 increase 5/150 in 20 mM Tris pH 8.0, 150 mM NaCl, 0.5 mM DDM.

Changes are numbered by the printed parent chain. In names and notes the source's numbering stands. These are yes or no findings as the source states them, for the method shown. Some entries that bind do so weakly or less than the wild type. For some assays here: Sequences can lack the tags named with a protein.

B1: hSOAT1 dimer construct (66-550) L151W (domain or fragment, UniProt P35610 66-550)
chain: MKEVGSHFDDFVTNLIEKSASLDNGGCALTTFSVLEGEKNNHRAKDLRAPPEQGKIFIARRSLLDELLEVDHIRTIYHMFIALLIWFILSTLVVDYIDEGRLVLEFSLLSYAFGKFPTVVWTWWIMFLSTFSVPYFLFQHWATGYSKSSHPLIRSLFHGFLFMIFQIGVLGFGPTYVVLAYTLPPASRFIIIFEQIRFVMKAHSFVRENVPRVLNSAKEKSSTVPIPTVNQYLYFLFAPTLIYRDSYPRNPTVRWGYVAMKFAQVFGCFFYVYYIFERLCAPLFRNIKQEPFSARVLVLCVFNSILPGVLILFLTFFAFLHCWLNAFAEMLRFGDRMFYKDWWNSTSYSNYYRTWNVVVHDWLYYYAYKDFLWFFSKRFKSAAMLAVFAVSAVVHEYALAVCLSFFYPVLFVLFMFFGMAFNFIVNDSRKKPIWNVLMWTSLFLGNGVLLCFYSQEWYARQHCPLKNPTFLDYVRPRSWTCRYVF
Consider B1, for which the binding result in experiment [1] is on record as “binds”.

B2: hSOAT1 dimer construct (66-550) A147F (domain or fragment, UniProt P35610 66-550)
chain: B1 chain with A82F, W86L
In the case of B2, the binding entry in experiment [2] was “binds”.

B3: hSOAT1 dimer construct (66-550) T140R (domain or fragment, UniProt P35610 66-550)
chain: B1 chain with T75R, W86L
On to B3, for which, in experiment [3], the binding result is reported as “binds”.

B4: hSOAT1 dimer construct (66-550) V159W (domain or fragment, UniProt P35610 66-550)
chain: B1 chain with W86L, V94W
On to B4, for which the binding entry in experiment [4] is listed as “binds”.

B5: N-terminal GFP-tagged N-terminal truncated human SOAT1 (66-550) (domain or fragment, UniProt P35610 66-550, looked up)
chain: B1 chain with W86L
notes: human sterol O-acyltransferase 1 (SOAT1), residues 66-550 (N-terminal tetramerization domain deleted); also called hSOAT1 dimer; SOAT1-dimer (66-550); source: HEK293F, transfected, solubilized with 1% GDN (supernatant, not purified); not shown: GFP, N-terminal, kept
Regarding B5, the binding entry in experiment [5] was “binds”.
